These results are taken from PubChem BioAssay AID256 (DTP/NCI, 2004).

For the assay, the system named is CD2F1 mice, L1210 leukemia ip, survival T/C. As to the kind of experiment: NCI In Vivo Anticancer Drug Screen. Data for tumor model L1210 Leukemia (intraperitoneal) in CD2F1 (CDF1) mice. The following applies: T/C endpoint: mean survival time, higher T/C = longer survival. An outline of the steps:
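Ratio T/C, where T is the treated-group value and C the vehicle-dosed control value, from mice implanted with a transplantable tumor.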

Setting [1] is: dose: 300.0 mg/kg/injection, schedule: Q01DX001 (ip), vehicle: saline.
Where [2] appears, read: dose: 100.0 mg/kg/injection, schedule: Q01DX001 (ip), vehicle: saline.
The mark [3] stands for this setting: dose: 200.0 mg/kg/injection, schedule: Q01DX001 (ip), vehicle: saline.
Setting [4] is: dose: 400.0 mg/kg/injection, schedule: Q01DX001 (ip), vehicle: saline.
Setting [5] is: dose: 5.0 mg/kg/injection, schedule: Q01DX005 (ip), vehicle: water.

The list does not hold the whole screen: it gathers tests that were run many times, whatever their T/C, doses with no T/C, and many T/C values between a quarter and a half above the control. Other doses and runs of a compound stand elsewhere. T/C gives the treated animals as a percentage of the vehicle group. Some entries give survivors of the animals treated and no T/C: the source holds a T/C of zero for them, seemingly a mark for toxic or unscored doses. Some survivor counts are full or nearly so, which does not show that the dose was tolerated: the source hardly ever lists a survival T/C far under the control, and the zero likely stands for such cases as well. Counts of survivors are from the toxicity check (mostly the fifth day) where no day follows; animals may have died later. Schedules are NCI's codes, taken here to give the interval after Q, in days (D) or hours (H), and the number of doses after X. For survival time, the PubChem record calls one and a half times the control and up active, and a quarter to a half above the control has no call in these data; cut-offs in other NCI protocols can differ. Some T/C values are followed by the survivors on the day toxicity was checked, most often the fifth; where none is given, no animal had died by that day. Some entries hold several experiments; the values are given in rising order. Brackets with × say how often a value occurs here.

For the compound `COc1ccc(CCNC(C)Cc2ccc(OC)c(OC)c2)cc1OC` (configuration not stated), the survivor count is 2 of 6 (dose: 100.0 mg/kg/injection, schedule: Q01DX009 (ip), vehicle: water) and 0 of 6 (dose: 200.0 mg/kg/injection, schedule: Q01DX009 (ip), vehicle: water).

For the compound `C=C1CC2C=CC1C2` (configuration not stated) (tested in a mixture with another compound), the survivor count is 3 of 6 (dose: 161.0 mg/kg/injection, schedule: Q01DX009 (ip), vehicle: saline with Tween-80) and 0 of 6 (dose: 322.0 mg/kg/injection, schedule: Q01DX009 (ip), vehicle: saline with Tween-80).

Regarding `C=CCC(C)(C)/C=N/N`, the survivor count under setting [1] is recorded as 0 of 6.

Turning to `OC(CC1CCCC(CC(O)c2ccccc2)N1CCc1ccccc1)c1ccccc1` (configuration not stated), under setting [1], the survivor count is 0 of 6.

For `O=S(=O)(n1ccnc1)C(F)(F)F`, the survivor count is 0 of 6 under setting [2], 0 of 6 under setting [3] and 0 of 6 under setting [4].

On to `COc1cc2c(cc1O)C(C)NCC2` (configuration not stated), for which, under setting [1], the survivor count is given as 1 of 6.

Consider `CC1(C)C(=O)OCC2=C1CCCC2`, for which the survivor count is, setting by setting: (dose: 75.0 mg/kg/injection, schedule: Q01DX001 (ip), vehicle: saline) 0 of 6; (dose: 150.0 mg/kg/injection, schedule: Q01DX001 (ip), vehicle: saline) 0 of 6; under setting [1], 0 of 6.

In the case of `CN(C)c1ccc(/C=C/C(=O)Cc2ccccc2)cc1`, the survivor count by setting is: (dose: 200.0 mg/kg/injection, schedule: Q01DX001 (ip), vehicle: saline sonified) 6 of 6; (dose: 400.0 mg/kg/injection, schedule: Q01DX001 (ip), vehicle: saline sonified) 6 of 6.

Turning to `COC(=O)C(CC(C)C)NC(=O)C(N)CSC(c1ccccc1)(c1ccccc1)c1ccccc1` (configuration not stated), the T/C (dose: 200.0 mg/kg/injection, schedule: Q01DX009 (ip), vehicle: saline) was 126 % of control and the T/C (dose: 400.0 mg/kg/injection, schedule: Q01DX009 (ip), vehicle: saline) is 127 % of control [5 of 6 alive].

Consider `Oc1ccc(Br)cc1/C=N/c1nc(-c2ccccc2)cs1.Oc1ccc(Br)cc1/C=N/c1nc(-c2ccccc2)cs1.[Cu]`, for which the survivor count is, setting by setting: (dose: 100.0 mg/kg/injection, schedule: Q01DX001 (ip), vehicle: saline with Tween-80) 3 of 3; (dose: 400.0 mg/kg/injection, schedule: Q01DX001 (ip), vehicle: saline with Tween-80) 2 of 3.

For the compound `CO[C@@]12[C@@H]3N[C@@H]3CN1C1=C(C(=O)C(NCCN3CCCC3)=C(C)C1=O)[C@@H]2COC(N)=O`, the T/C (dose: 1.25 mg/kg/injection, schedule: Q01DX005 (ip), vehicle: water) was 134 % of control and the T/C under setting [5] was 125 % of control. In addition, the survivor count is given as 6 of 6 under setting [5]; 1 of 6 (dose: 10.0 mg/kg/injection, schedule: Q01DX005 (ip), vehicle: water); 0 of 6 (dose: 24.0 mg/kg/injection, schedule: Q01DX001 (ip), vehicle: water).

Take `NC(N)=Nc1ccc(C(=O)Oc2ccc([N+](=O)[O-])cc2)cc1`: under “dose: 400.0 mg/kg/injection, schedule: Q01DX009 (ip), vehicle: saline with Tween-80”, the survivor count was 4 of 6.

On to `CC1=NCC[N-]C(C)(C)CC(C)=NCC[N-]C(C)(C)C1.[Ni+2].[O-][Cl+3]([O-])([O-])O`, for which the survivor count (dose: 400.0 mg/kg/injection, schedule: Q04DX003 (ip), vehicle: saline) is listed as 0 of 6.

On to `CC12c3ccccc3C(c3ccccc31)C1C(=O)OC(=O)C12` (configuration not stated), for which, under “dose: 200.0 mg/kg/injection, schedule: Q01DX009 (ip), vehicle: saline with Tween-80”, the survivor count is 3 of 6.

Consider `COc1cccnc1/C=N/NC(N)=S`, for which the T/C by setting is: (dose: 5.54 mg/kg/injection, schedule: Q01DX009 (ip), vehicle: saline with Tween-80) 136 % of control; (dose: 6.25 mg/kg/injection, schedule: Q01DX009 (ip), vehicle: saline with Tween-80) 134 % of control; (dose: 8.32 mg/kg/injection, schedule: Q01DX009 (ip), vehicle: saline with Tween-80) 130 % of control; (dose: 12.5 mg/kg/injection, schedule: Q01DX009 (ip), vehicle: saline with Tween-80) 140 % of control [5 of 6 alive]; (dose: 18.8 mg/kg/injection, schedule: Q01DX009 (ip), vehicle: saline with Tween-80) 126 [7 of 10 alive] and 129 % of control [9 of 10 alive]. Besides, the survivor count is, setting by setting: (dose: 25.0 mg/kg/injection, schedule: Q01DX009 (ip), vehicle: saline with Tween-80) 6 of 6; (dose: 25.0 mg/kg/injection, schedule: Q04DX002 (ip), vehicle: saline with Tween-80) 0 of 3; (dose: 28.1 mg/kg/injection, schedule: Q01DX001 (ip), vehicle: saline with Tween-80) 4 of 10; (dose: 28.1 mg/kg/injection, schedule: Q01DX009 (ip), vehicle: saline with Tween-80) 0 of 10; (dose: 28.1 mg/kg/injection, schedule: Q04DX001 (ip), vehicle: saline with Tween-80) 9 of 10.

For the compound `CN(Cc1cnc2nc(N)nc(N)c2n1)c1ccc(C(=O)N[C@@H](CCC(=O)O)C(N)=O)cc1`, the T/C by setting is: (dose: 12.5 mg/kg/injection, schedule: Q01DX009 (ip), vehicle: sodium bicarbonate) 125 % of control; (dose: 25.0 mg/kg/injection, schedule: Q01DX009 (ip), vehicle: sodium bicarbonate) 134 % of control. For the same compound, the survivor count is, setting by setting: (dose: 50.0 mg/kg/injection, schedule: Q01DX009 (ip), vehicle: sodium bicarbonate) 6 of 6; (dose: 100.0 mg/kg/injection, schedule: Q01DX009 (ip), vehicle: sodium bicarbonate) 2 of 6; (dose: 200.0 mg/kg/injection, schedule: Q01DX009 (ip), vehicle: sodium bicarbonate) 0 of 6.

For the compound `O=C1C=Cc2ccccc2C1=O`, the survivor count reads like this: (dose: 5.0 mg/kg/injection, schedule: Q01DX009 (ip), vehicle: saline with Tween-80) 2 of 6; (dose: 10.0 mg/kg/injection, schedule: Q01DX009 (ip), vehicle: saline with Tween-80) 0 of 6.

`CC[N+](C)(CC)CCOC(C)=O`: the survivor count under setting [2] was 0 of 3, the survivor count under setting [3] is on record as 0 of 3 and the survivor count under setting [4] is 0 of 3.

For the compound `O=c1[nH]cc(F)c(=O)n1C1OC(CO)C(O)C1O` (configuration not stated), the T/C was 143 % of control (dose: 1.0 mg/kg/injection, schedule: Q01DX005 (ip), vehicle: saline); 139 % of control (dose: 2.5 mg/kg/injection, schedule: Q03HX024 (ip), vehicle: saline); 139 % of control (dose: 2.5 mg/kg/injection, schedule: Q04DX003 (ip), vehicle: saline); 146 % of control (dose: 5.0 mg/kg/injection, schedule: Q01DX001 (ip), vehicle: saline); 140 % of control (dose: 5.0 mg/kg/injection, schedule: Q03HX008 (ip), vehicle: saline); 143 % of control (dose: 10.0 mg/kg/injection, schedule: Q01DX001 (ip), vehicle: saline). Besides, the T/C was 148 % of control (dose: 10.0 mg/kg/injection, schedule: Q03HX008 (ip), vehicle: saline) and 141 % of control [9 of 10 alive] (dose: 20.0 mg/kg/injection, schedule: Q03HX008 (ip), vehicle: saline).

Regarding `COc1cc2c[n+](C)c3c4cc5c(cc4ccc3c2cc1OC)OCO5`, the T/C is, setting by setting: (dose: 1.25 mg/kg/injection, schedule: Q01DX009 (ip), vehicle: water) 100, 102, 110, 113 % of control; (dose: 2.5 mg/kg/injection, schedule: Q01DX009 (ip), vehicle: water) 110, 111, 112, 122, 125 % of control; (dose: 5.0 mg/kg/injection, schedule: Q01DX009 (ip), vehicle: water) 110, 113 (2×), 118, 121, 125 % of control; (dose: 10.0 mg/kg/injection, schedule: Q01DX009 (ip), vehicle: water) 115 (2×), 121, 125, 126, 127 % of control; (dose: 20.0 mg/kg/injection, schedule: Q01DX009 (ip), vehicle: water) 115, 115 [5 of 6 alive], 119, 130 [5 of 6 alive], 131, 137 % of control; (dose: 40.0 mg/kg/injection, schedule: Q01DX009 (ip), vehicle: water) 141 % of control. In addition, where the note is “dose: 100.0 mg/kg/injection, schedule: Q01DX009 (ip), vehicle: saline with Tween-80”, the survivor count is reported as 4 of 6.
